{
  "source": "the supplement of paper PMC8007513",
  "note": "The list shows a part of the results. Single values are uncertain, as repeats are few or missing.",
  "data": [
    {"tested_on": "Saccharomyces cerevisiae BY4743", "assay": "growth (OD600) with compound + IPBC relative to untreated control; higher = less growth inhibition", "conditions": "compound concentration: 133 uM; IPBC concentration: 0.5 ug/ml; 20 h", "protocol": "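NMCCC compounds (133 uM) combined with IPBC (0.5 ug/ml) against Saccharomyces cerevisiae BY4743 in YPD, 96-well plates. Growth was read as OD600 at 20 h and expressed as % of the untreated control. Single pass.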", "units": {"growth": "%"}, "values": [
      {"smiles": "CC1=CC=CC(=C1C)NC(=O)CNC(=O)CN2\\N=C(\\C(N)=O)C3=CC=CC=C3C2=O", "note": "+ CCCCNC(=O)OCC#CI [3-iodo-2-propynyl butylcarbamate (IPBC)]", "growth": 106},
      {"smiles": "CCN(CC)C(=O)Cn1c(S(=O)(=O)Cc2ccccc2)nc2ccccc21", "note": "+ CCCCNC(=O)OCC#CI [3-iodo-2-propynyl butylcarbamate (IPBC)]", "growth": 98.6},
      {"smiles": "COc1ccc(-c2noc(CC(=O)N(C)c3cc(C)ccc3C)n2)cc1", "note": "+ CCCCNC(=O)OCC#CI [3-iodo-2-propynyl butylcarbamate (IPBC)]", "growth": 99.8},
      {"smiles": "CC1=CC=CC=C1CCNC(=O)CN2\\N=C(/OC2=O)C3=CC=CC=C3", "note": "+ CCCCNC(=O)OCC#CI [3-iodo-2-propynyl butylcarbamate (IPBC)]", "growth": 98.4},
      {"smiles": "CCOC(=O)c1[nH]c(C)c(C(=O)Nc2c(C)cc(C)cc2C)c1C", "note": "+ CCCCNC(=O)OCC#CI [3-iodo-2-propynyl butylcarbamate (IPBC)]", "growth": 103},
      {"smiles": "COc1ccc(CCNc2cc(-c3ccccc3)ncn2)cc1OC", "note": "+ CCCCNC(=O)OCC#CI [3-iodo-2-propynyl butylcarbamate (IPBC)]", "growth": 87.8},
      {"smiles": "CN(CCOC1=CC=CC=C1)[S](=O)(=O)\\C2=C\\N(C)C(=O)N(C)C2=O", "note": "+ CCCCNC(=O)OCC#CI [3-iodo-2-propynyl butylcarbamate (IPBC)]", "growth": 114},
      {"smiles": "COc1cccc(OC)c1C(=O)OCC(=O)NC(=O)NCc1ccccc1", "note": "+ CCCCNC(=O)OCC#CI [3-iodo-2-propynyl butylcarbamate (IPBC)]", "growth": 99.9}
    ]}
  ]
}
